Reference: publication PMC4411066
Results are given in words; binding and its absence hold for the method and conditions named. Binding seen in cells or lysates may run through a third protein. Some results given as binding are weak or reduced against the parent protein; the word gives no strength.

Amino acid sequences for entries named in this document (tags omitted). Residues count along the entry.
UniProt Q99836: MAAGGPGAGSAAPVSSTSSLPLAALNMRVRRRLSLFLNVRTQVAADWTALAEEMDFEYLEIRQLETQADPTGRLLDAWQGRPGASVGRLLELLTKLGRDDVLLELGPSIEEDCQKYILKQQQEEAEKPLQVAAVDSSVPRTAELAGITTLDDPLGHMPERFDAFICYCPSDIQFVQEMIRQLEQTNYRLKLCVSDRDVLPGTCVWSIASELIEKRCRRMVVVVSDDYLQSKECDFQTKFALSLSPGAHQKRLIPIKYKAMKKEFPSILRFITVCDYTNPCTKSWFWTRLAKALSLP
UniProt P62993: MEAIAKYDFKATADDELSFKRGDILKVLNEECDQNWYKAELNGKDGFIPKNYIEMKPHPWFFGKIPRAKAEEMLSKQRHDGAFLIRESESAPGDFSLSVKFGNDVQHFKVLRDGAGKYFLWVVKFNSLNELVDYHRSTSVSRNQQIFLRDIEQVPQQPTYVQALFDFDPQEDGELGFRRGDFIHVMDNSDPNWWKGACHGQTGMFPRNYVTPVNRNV
UniProt O00206, residues 24-839: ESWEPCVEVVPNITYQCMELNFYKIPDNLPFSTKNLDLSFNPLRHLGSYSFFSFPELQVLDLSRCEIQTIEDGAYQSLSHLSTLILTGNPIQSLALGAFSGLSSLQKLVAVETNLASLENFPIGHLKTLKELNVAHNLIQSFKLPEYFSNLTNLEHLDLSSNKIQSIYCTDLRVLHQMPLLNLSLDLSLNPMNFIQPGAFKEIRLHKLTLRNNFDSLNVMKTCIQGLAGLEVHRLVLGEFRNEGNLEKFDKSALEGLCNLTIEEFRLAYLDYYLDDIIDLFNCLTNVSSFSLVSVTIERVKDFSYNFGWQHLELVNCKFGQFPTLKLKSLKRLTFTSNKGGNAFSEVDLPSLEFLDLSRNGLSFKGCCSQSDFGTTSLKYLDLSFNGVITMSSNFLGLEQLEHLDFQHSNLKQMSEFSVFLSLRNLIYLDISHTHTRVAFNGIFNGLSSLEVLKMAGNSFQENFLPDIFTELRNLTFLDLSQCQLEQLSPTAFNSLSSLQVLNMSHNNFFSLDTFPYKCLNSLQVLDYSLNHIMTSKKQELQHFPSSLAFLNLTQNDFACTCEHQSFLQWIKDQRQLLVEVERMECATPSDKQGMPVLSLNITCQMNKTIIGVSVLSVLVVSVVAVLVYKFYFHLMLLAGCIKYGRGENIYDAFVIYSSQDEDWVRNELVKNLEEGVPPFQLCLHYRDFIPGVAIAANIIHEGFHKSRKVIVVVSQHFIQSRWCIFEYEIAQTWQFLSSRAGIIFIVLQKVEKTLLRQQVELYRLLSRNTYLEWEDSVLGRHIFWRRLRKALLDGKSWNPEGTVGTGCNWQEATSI

What was measured:
[1] = target: MyD88 (human (endogenous in H69)) (UniProt Q99836); test: condition: only cells cultured in the absence of LPS; FRET or BRET; acceptor photobleach FRET on fixed H69 cells transfected with Myc-tagged Grb2, cultured in the absence of LPS; anti-MyD88 and anti-Myc-tag antibodies with Cy3 or Cy5-conjugated secondary antibodies
[2] = target: MyD88 (human (endogenous in H69)) (UniProt Q99836); test: co-IP; H69 cell lysates, cells cultured in the presence or absence of LPS; pre-cleared with Protein A/G sepharose, MyD88 or SOS1 antibody overnight at 4°C; Western blots for Grb2 or TLR4

binding [1] | binding [2] | Substance
no binding | – | Myc-tagged Grb2 (from UniProt P62993 1-217)
– | binds | Grb2 (from UniProt P62993 1-217)
– | binds | TLR4 (from UniProt O00206 24-839) (receptor)
